Assay results taken from the supplement of paper PMC10849652.
This is one part of the list.

Chains of the proteins cited; added tags and fusions are not shown. Lines headed by an entry give the natural chain unless they say otherwise; changes in a name come on top.
UniProt Q09028, whole entry, looked up: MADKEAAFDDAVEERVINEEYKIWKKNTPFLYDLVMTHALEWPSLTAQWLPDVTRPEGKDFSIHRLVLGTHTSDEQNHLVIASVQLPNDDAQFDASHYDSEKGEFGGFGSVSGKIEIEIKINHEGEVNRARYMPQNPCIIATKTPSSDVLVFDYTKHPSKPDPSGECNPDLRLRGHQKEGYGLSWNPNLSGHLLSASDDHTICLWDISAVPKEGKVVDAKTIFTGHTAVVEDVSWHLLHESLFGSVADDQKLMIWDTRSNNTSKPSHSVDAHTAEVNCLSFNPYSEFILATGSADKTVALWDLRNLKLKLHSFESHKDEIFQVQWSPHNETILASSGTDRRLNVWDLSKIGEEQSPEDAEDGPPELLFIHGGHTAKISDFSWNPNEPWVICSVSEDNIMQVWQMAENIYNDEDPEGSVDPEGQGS
UniProt Q15283: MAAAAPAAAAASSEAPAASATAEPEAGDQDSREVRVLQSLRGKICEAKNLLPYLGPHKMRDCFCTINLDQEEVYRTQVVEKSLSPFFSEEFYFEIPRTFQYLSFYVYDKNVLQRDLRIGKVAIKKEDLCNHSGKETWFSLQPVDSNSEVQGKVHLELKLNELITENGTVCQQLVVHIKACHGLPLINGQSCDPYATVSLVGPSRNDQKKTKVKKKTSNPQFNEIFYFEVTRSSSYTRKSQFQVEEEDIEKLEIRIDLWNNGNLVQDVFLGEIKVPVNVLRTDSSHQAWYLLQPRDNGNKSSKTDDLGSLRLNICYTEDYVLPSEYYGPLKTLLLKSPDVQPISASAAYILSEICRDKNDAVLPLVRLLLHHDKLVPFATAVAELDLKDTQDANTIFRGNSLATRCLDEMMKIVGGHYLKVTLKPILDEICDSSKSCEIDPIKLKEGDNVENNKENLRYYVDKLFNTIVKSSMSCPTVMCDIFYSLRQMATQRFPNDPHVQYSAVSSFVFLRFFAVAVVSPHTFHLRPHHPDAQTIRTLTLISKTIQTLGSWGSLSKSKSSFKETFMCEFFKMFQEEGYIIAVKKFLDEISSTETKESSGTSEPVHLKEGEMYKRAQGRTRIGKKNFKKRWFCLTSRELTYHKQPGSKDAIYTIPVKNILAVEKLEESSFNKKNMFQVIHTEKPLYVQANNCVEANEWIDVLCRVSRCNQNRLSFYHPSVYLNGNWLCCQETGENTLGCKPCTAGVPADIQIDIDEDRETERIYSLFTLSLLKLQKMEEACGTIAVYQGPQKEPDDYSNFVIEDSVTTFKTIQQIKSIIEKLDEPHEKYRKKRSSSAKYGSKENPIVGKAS
UniProt P06400: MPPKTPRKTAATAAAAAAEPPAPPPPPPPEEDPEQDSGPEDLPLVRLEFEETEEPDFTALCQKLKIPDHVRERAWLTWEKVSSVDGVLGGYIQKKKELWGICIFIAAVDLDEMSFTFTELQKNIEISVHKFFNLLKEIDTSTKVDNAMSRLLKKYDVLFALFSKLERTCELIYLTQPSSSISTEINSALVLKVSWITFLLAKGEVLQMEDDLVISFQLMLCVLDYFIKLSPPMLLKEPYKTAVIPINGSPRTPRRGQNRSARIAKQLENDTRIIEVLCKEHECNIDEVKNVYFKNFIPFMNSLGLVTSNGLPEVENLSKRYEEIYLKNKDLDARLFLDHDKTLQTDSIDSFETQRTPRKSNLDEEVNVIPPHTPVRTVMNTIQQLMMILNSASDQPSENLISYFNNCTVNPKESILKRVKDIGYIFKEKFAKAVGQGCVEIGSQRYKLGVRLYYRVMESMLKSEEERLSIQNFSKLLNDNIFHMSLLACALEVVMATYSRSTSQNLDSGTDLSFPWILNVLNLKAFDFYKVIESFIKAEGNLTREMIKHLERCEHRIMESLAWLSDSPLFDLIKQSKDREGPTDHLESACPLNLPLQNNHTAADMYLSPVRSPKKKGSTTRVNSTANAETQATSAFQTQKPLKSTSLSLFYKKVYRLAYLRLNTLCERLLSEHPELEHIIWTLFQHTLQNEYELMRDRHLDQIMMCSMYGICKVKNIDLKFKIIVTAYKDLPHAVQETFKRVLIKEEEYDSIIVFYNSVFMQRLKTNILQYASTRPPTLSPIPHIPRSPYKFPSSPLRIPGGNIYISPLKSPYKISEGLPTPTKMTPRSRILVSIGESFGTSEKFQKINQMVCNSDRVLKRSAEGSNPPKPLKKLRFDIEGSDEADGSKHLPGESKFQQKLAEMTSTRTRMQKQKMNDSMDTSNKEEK
UniProt Q04864: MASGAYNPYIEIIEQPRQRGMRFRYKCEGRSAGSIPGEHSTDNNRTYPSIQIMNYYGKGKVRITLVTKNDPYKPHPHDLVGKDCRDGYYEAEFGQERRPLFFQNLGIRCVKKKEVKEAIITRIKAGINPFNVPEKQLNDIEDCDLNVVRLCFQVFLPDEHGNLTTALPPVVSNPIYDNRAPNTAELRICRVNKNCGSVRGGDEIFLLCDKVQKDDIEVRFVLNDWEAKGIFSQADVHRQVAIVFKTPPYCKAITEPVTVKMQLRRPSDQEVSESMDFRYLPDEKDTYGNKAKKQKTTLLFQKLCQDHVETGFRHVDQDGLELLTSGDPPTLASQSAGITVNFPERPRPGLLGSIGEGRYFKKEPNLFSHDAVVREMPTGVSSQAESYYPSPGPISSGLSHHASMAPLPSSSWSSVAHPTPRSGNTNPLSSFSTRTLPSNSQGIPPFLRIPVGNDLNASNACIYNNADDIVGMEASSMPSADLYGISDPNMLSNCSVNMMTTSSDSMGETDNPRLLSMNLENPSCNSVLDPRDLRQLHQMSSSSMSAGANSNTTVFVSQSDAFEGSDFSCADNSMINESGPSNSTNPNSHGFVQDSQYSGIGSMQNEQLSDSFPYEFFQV
UniProt Q9HBH5: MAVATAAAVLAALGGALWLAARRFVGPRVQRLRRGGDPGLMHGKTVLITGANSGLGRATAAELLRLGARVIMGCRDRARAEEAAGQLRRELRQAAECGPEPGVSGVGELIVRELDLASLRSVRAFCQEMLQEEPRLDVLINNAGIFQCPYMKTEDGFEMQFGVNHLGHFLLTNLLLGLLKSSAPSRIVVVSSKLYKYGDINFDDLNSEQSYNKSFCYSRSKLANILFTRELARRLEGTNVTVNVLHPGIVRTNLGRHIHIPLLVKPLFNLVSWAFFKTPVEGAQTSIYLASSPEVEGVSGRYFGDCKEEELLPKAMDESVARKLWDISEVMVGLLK
UniProt Q9NW13: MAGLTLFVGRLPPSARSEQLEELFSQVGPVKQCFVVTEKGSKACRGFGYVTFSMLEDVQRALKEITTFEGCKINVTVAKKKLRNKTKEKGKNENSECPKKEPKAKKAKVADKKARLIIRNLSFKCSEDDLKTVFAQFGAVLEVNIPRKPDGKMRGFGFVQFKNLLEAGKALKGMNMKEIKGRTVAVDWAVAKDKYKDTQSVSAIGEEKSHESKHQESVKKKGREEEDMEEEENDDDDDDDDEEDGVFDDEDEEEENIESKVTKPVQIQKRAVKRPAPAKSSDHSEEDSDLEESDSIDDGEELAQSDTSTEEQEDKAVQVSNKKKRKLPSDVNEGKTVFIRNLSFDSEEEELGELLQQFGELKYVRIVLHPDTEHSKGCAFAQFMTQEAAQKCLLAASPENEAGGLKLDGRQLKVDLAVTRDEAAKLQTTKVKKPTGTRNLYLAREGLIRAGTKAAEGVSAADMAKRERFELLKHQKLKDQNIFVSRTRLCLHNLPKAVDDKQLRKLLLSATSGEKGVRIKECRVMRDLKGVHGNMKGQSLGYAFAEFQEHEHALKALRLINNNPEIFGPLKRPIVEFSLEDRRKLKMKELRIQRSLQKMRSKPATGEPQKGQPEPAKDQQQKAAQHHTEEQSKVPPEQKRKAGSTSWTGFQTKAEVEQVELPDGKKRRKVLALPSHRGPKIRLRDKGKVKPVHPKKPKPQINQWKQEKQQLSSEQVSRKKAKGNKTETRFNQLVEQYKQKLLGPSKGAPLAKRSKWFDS
UniProt Q14257: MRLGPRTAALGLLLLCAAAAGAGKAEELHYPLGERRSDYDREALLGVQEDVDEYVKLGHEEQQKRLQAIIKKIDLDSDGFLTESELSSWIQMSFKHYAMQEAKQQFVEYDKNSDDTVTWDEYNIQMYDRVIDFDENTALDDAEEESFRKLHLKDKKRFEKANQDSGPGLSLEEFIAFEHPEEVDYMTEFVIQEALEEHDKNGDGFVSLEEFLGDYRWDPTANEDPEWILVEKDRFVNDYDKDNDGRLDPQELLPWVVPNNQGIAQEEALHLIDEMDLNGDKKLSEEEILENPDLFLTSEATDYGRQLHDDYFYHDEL
UniProt Q9NTZ6: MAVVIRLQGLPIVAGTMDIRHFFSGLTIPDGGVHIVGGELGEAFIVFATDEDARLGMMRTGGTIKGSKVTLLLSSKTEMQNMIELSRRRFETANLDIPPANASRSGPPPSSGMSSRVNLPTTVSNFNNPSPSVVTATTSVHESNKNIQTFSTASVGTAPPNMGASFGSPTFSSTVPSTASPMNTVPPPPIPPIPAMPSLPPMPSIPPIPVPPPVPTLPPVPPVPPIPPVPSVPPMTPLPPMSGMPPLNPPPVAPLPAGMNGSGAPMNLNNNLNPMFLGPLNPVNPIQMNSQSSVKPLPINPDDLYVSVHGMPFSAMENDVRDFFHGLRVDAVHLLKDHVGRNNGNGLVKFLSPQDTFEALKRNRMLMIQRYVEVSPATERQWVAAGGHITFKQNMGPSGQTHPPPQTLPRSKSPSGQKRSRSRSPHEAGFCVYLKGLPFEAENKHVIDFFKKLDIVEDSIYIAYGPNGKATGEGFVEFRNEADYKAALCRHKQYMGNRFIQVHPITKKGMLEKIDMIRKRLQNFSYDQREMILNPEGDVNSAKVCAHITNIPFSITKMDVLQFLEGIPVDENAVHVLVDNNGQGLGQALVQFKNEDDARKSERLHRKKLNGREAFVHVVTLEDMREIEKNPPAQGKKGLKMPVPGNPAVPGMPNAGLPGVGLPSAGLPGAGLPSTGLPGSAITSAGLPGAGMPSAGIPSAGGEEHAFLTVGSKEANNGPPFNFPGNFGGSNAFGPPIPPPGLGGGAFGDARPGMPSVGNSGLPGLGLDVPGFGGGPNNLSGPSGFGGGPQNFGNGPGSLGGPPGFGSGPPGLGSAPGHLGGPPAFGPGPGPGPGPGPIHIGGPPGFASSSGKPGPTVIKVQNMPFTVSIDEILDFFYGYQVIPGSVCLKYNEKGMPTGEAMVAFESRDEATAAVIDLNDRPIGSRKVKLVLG
UniProt Q9P2N5: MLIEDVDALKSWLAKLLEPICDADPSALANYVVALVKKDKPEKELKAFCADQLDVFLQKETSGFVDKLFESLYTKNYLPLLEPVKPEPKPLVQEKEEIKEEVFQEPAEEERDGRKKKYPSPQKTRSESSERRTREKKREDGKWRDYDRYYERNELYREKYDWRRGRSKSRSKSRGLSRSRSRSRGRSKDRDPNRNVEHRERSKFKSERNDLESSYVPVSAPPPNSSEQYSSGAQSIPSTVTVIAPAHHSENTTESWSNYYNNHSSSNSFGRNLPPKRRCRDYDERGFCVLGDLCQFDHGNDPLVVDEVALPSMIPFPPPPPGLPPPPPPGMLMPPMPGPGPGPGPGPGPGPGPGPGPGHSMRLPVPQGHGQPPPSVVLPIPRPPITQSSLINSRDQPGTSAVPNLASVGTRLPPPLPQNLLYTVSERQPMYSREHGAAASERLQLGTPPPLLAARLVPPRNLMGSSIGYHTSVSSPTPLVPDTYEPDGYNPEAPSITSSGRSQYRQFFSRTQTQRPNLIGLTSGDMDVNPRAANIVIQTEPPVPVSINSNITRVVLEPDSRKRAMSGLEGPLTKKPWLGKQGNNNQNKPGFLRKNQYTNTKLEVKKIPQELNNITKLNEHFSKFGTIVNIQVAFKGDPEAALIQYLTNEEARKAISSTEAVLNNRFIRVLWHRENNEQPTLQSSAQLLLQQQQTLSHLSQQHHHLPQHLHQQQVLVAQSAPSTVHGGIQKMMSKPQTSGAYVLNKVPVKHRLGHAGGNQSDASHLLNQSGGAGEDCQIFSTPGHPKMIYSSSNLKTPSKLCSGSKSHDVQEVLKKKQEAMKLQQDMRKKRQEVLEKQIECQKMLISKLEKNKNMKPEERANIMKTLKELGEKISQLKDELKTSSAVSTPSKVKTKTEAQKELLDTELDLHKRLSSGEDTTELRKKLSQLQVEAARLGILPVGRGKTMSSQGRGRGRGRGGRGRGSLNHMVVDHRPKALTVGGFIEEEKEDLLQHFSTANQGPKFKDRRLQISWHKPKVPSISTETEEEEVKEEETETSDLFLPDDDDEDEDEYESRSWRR
UniProt Q969G6: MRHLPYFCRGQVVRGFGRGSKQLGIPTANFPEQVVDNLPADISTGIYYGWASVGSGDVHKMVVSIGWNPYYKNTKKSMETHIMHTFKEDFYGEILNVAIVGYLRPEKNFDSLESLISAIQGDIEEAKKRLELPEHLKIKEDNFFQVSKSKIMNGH

Legend:
Assay in all cases: log2 fold change, soluble protein after heating vs DMSO (PISA); higher = thermal stabilisation; K562 lysate, 10 uM; active = over 0.2 and 3.5 SD of the protein, either way, in both replicates (recomputed)
[1] = compound: CCCS(=O)(=O)Nc1ccc(F)c(C(=O)c2c[nH]c3ncc(-c4ccc(Cl)cc4)cc23)c1F [vemurafenib]
Method in brief: (§1)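 K562 pellets were dounce-homogenised in PBS pH 7.4 with 1 mM MgCl2, and the crude extract at 1 mg/mL protein was treated with 10 μM compound for 30 min. Aliquots were heated for 3 min across 48°C-58°C, pooled, and brought to 0.5% NP-40 at 4°C; soluble protein was the supernatant after 21,000xg for 90 min. Soluble protein was quantified by TMTpro 16plex LC-MS/MS with channel sums equalised, and reported as log2 fold change in thermal stability against DMSO controls, with values from duplicates.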

[2] = compound: CCCS(=O)(=O)Nc1ccc(F)c(C(=O)c2c[nH]c3ncc(Cl)cc23)c1F
Method in brief: as §1

[3] = compound: CCN(CCCOc1ccc2c(Nc3cc(CC(=O)Nc4cccc(F)c4)[nH]n3)ncnc2c1)CCOP(=O)(O)O [barasertib]
Method in brief: as §1

[4] = compound: CC[C@@H]1C(=O)N(C)c2cnc(Nc3ccc(C(=O)NC4CCN(C)CC4)cc3OC)nc2N1C1CCCC1
Method in brief: as §1

[5] = compound: CC[C@@H]1C(=O)N(C)c2cnc(Nc3ccc(C(=O)N[C@H]4CC[C@H](N5CCN(CC6CC6)CC5)CC4)cc3OC)nc2N1C(C)C [volasertib]
Method in brief: as §1

[6] = compound: CCn1c(C(=O)N(C2CC2)C2CC2)cc2c3c(ncn3C)c(Nc3cc(C)n(C)n3)nc21
Method in brief: as §1

[7] = compound: CCn1cc(-c2ccnc3[nH]c(-c4cccc(CN(C)C)c4)cc23)c(-c2ccc(NC(=O)N(C)C)cc2)n1
Method in brief: as §1

[8] = compound: CN1CCC(CNc2ccc3ncc(-c4cccc(OC(F)(F)F)c4)n3n2)CC1
Method in brief: as §1

[9] = compound: CN1CCN(CCOc2cc(OC3CCOCC3)c3c(Nc4c(Cl)ccc5c4OCO5)ncnc3c2)CC1 [saracatinib]
Method in brief: as §1

[10] = compound: CN1CCN(c2nc(C3=C(c4c[nH]c5ccccc45)C(=O)NC3=O)c3ccccc3n2)CC1 [sotrastaurin]
Method in brief: as §1

Measured: log2 fold change

RBBP4 (UniProt Q09028)
inactive: [1] 0.014 | [2] 0.037 | [3] -0.007 | [4] -0.001 | [5] 0.014 | [6] -0.02 | [7] -0.128 | [8] 0.1 | [9] -0.006 | [10] -0.052

RHEB (UniProt Q15382)
inactive: [1] -0.013 | [2] -0.003 | [3] 0.037 | [4] -0.164 | [5] -0.06 | [6] 0.047 | [7] -0.107 | [8] 0.081 | [9] 0.009 | [10] 0.044

RBM39 (UniProt Q14498)
inactive: [1] 0.034 | [2] 0.057 | [3] 0.015 | [4] -0.096 | [5] -0.008 | [6] -0.005 | [7] 0.043 | [8] -0.054 | [9] -0.005 | [10] 0.007

RASSF5 (UniProt Q8WWW0)
inactive: [1] 0.032 | [2] 0.043 | [3] 0.029 | [4] 0.047 | [5] -0.052 | [6] -0.062 | [7] 0 | [8] 0.225 | [9] -0.008 | [10] 0.019

RASA2 (UniProt Q15283)
inactive: [1] 0.069 | [2] 0.025 | [3] -0.02 | [4] -0.055 | [5] -0.018 | [6] 0.02 | [7] -0.028 | [8] -0.013 | [9] 0.068 | [10] -0.017

RB1 (UniProt P06400)
inactive: [1] 0.003 | [2] 0.013 | [3] 0.038 | [4] 0.031 | [5] -0.006 | [6] 0.003 | [7] -0.039 | [8] 0.029 | [9] 0.007 | [10] 0.014

RBBP6 (UniProt Q7Z6E9)
inactive: [1] 0.051 | [2] 0.01 | [3] 0.034 | [4] 0.022 | [5] 0 | [6] -0.043 | [7] 0.034 | [8] -0.002 | [9] 0.039 | [10] -0.021

REL isoform 2 (UniProt Q04864)
inactive: [1] -0.035 | [2] 0.017 | [3] 0.033 | [4] 0.049 | [5] -0.032 | [6] 0.025 | [7] 0.02 | [8] -0.174 | [9] -0.002 | [10] -0.022

RDH14 (UniProt Q9HBH5)
inactive: [1] 0.038 | [2] 0.026 | [3] -0.007 | [4] -0.076 | [5] -0.022 | [6] 0.009 | [7] -0.228 | [8] 0.061 | [9] -0.015 | [10] 0.074

RBM28 (UniProt Q9NW13)
inactive: [1] 0.007 | [2] 0.025 | [3] 0.014 | [4] -0.033 | [5] -0.021 | [6] 0.009 | [7] 0.014 | [8] -0.044 | [9] 0.001 | [10] -0.005

RCN2 isoform 2 (UniProt Q14257)
inactive: [1] -0.032 | [2] 0.004 | [3] -0.022 | [4] -0.046 | [5] 0.002 | [6] -0.033 | [7] 0.061 | [8] -0.013 | [9] -0.002 | [10] 0.019

RBM12 (UniProt Q9NTZ6)
inactive: [1] 0.006 | [2] 0.023 | [3] -0.009 | [4] 0.007 | [5] -0.017 | [6] 0.01 | [7] -0.037 | [8] 0.042 | [9] -0.003 | [10] -0.017

RBM27 (UniProt Q9P2N5)
inactive: [1] 0.052 | [2] 0.004 | [3] 0.033 | [4] 0.022 | [5] 0.008 | [6] 0.022 | [7] 0.042 | [8] -0.021 | [9] 0.023 | [10] 0.009

RCC2 (UniProt Q9P258)
inactive: [1] -0.014 | [2] -0.015 | [3] -0.019 | [4] -0.071 | [5] -0.018 | [6] 0.028 | [7] 0.001 | [8] -0.011 | [9] 0.007 | [10] 0.002

RFK (UniProt Q969G6)
inactive: [1] 0 | [2] 0 | [3] 0.122 | [4] -0.006 | [5] -0.061 | [6] -0.017 | [7] -0.052 | [8] 0.008 | [9] 0.03 | [10] -0.007
